Reference: US20130071410A1 (published 2013)
Substitutions are numbered along the chain they refer to. These are yes or no findings as the source states them, for the method shown. Some entries that bind do so weakly or less than the wild type. One block for each binder: values may come before it.

Sequences of proteins named here, by UniProt entry; tags and fusion partners are left off. A change or cut given only in a name is not applied to a line headed by its entry.
UniProt Q16602: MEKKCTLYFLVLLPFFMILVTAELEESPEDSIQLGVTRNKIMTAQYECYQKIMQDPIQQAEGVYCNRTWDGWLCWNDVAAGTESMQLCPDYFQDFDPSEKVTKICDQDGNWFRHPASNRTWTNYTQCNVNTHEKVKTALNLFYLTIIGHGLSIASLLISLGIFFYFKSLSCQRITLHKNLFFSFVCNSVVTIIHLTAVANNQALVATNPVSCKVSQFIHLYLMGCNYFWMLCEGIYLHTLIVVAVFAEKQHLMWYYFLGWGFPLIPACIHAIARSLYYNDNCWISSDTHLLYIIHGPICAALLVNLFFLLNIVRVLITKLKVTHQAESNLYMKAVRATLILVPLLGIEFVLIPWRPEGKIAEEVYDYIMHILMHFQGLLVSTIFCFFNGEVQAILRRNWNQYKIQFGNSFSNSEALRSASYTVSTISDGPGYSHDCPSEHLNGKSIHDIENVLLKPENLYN

Legend:
[1] = molecular target: soluble heterodimeric CGRP R ECD fused to human IgG1 Fc (human) (UniProt Q16602); experiment: Biacore, antibody immobilized on CM5 chip
[2] = molecular target: soluble heterodimeric CGRP R ECD fused to human IgG1 Fc (human) (UniProt Q16602); experiment: Biacore; receptor captured by immobilized 34E3 (competitor)
[3] = molecular target: soluble heterodimeric CGRP R ECD fused to human IgG1 Fc (human) (UniProt Q16602); experiment: Biacore; receptor captured by immobilized 3B6 (competitor)
[4] = molecular target: soluble heterodimeric CGRP R ECD fused to human IgG1 Fc (human) (UniProt Q16602); experiment: Biacore; receptor captured by immobilized 4H6 (competitor)
[5] = molecular target: soluble heterodimeric CGRP R ECD fused to human IgG1 Fc (human) (UniProt Q16602); experiment: Biacore; receptor captured by immobilized 9F5 (competitor)
[6] = molecular target: soluble heterodimeric CGRP R ECD fused to human IgG1 Fc (human) (UniProt Q16602); experiment: Biacore; receptor captured by immobilized 12G8 (competitor)
[7] = molecular target: soluble heterodimeric CGRP R ECD fused to human IgG1 Fc (human) (UniProt Q16602); experiment: Biacore; receptor captured by immobilized 11D11 (competitor)

B2: 2E7 (antibody, human IgG2, kappa, V domains shown)
VH: EVQLLESGGGLVQPGESLRLSCAASGFTFSSYAMSWVRQAPGKGLEWVSAISGSGGRTYYADSVKGRFTISRDNSKNTLYLQMNSLRAEDTAVYYCAKDQREVGPYSSGWYDYYYGMDVWGQGTTVTVSS
VL: DIQMTQSPSSLSASVGDRVTITCRASQGIRNDLGWFQQKPGKAPKRLIYAASSLQSGVPSRFSGSGSGTEFTLTISSLQPEDLATYYCLQYNIYPWTFGQGTKVEIKR
binding [2]: binds

B5: 3C8 (antibody, human IgG2, kappa, V domains shown)
VH: QVQLVESGGGVVQPGRSLRLSCAASGFTFSSYGMHWVRQAPGKGLEWVAVISYDGSHESYADSVKGRFTISRDISKNTLYLQMNSLRAEDTAVYFCARERKRVTMSTLYYYFYYGMDVWGQGTTVTVSS
VL: DIILAQTPLSLSVTPGQPASISCKSSQSLLHSAGKTYLYWYLQKPGQPPQLLIYEVSNRFSGVPDRFSGSGSGTDFTLKISRVEAEDVGIYYCMQSFPLPLTFGGGTKVEIKR
binding [2]: binds

B7: 5F5 (antibody, human IgG2, kappa, V domains shown)
VH: B5 VH
VL: B5 VL with A5T, A33D, V63E, I90T
binding [2]: binds

B9: 1E11 (antibody, human IgG2, lambda, V domains shown)
VH: QVQLVESGGGVVQPGRSLRLSCAASGFTFSSFGMHWVRQAPGKGLEWVAVISFDGSIKYSVDSVKGRFTISRDNSKNTLFLQMNSLRAEDTAVYYCARDRLNYYDSSGYYHYKYYGMAVWGQGTTVTVSS
VL: QSVLTQPPSVSEAPGQKVTISCSGSSSNIGNNYVSWYQQLPGTAPKLLIYDNNKRPSGIPDRFSGSKSGTSATLGITGLQTGDEADYYCGTWDSRLSAVVFGGGTKLTVLG
binding [2]: binds

B10: 9D4 (antibody, human IgG2, lambda, V domains shown)
VH: B9 VH
VL: B9 VL with E12A, L40F
binding [2]: binds

B11: 4E4 (antibody, human IgG2, lambda, V domains shown)
VH: B9 VH
VL: B9 VL with E12A, A72T
binding [2]: binds

Other lines, results leading:

binding [1]: binds
B1: 34E3 (antibody, V domains shown)
VH: QITLKESGPTLVKPTQTLTLTCTFSGFSLSTSGVGVAWIRQPPGKALEWLALIYWTDDKRYSPSLKSRLTITKDTSKNQVVLRMTNMDPLDTATYFCAHRPGGWFDPWGQGTLVTVSS
VL: QSVLTQPPSMSAAPGQKVTISCSGSSSNIGNNYVSWYQQLPGTAPKLLIYDNNKRPSGIPDRFSGSKSGTSATLGITGLQTGDEANYCCGTWDIGLSVWVFGGGTKLTVL

binding [2]: binds
B3: 13H2 (antibody, human IgG2, kappa, V domains shown)
VH: EVQLVESGGGLVKPGGSLRLSCAASGYTFSTYSMNWVRQAPGKGLEWVSSISSSSSYRYYADSVKGRFTISRDNAKNSLYLQMSSLRAEDTAVYYCAREGVSGSSPYSISWYDYYYGMDVWGQGTTVTVSS
VL: B2 VL with N31K, F36Y, A50G, L83F, I93S, Y94F

binding [3]: binds
binding [4]: binds
binding [5]: binds
binding [6]: binds
binding [7]: binds
B4: 33E4 (antibody, V domains shown)
VH: QVQLQQWGAGLLKPSETLSLSCAVYGGSFGGYYWSWIRQPPGKGLEWIGEINHSGGTKYNPSLKSRVTISVDTSKNQFSLKLSSVTAADTAVYFCARGDVVGFFDYWGQGTLVTVSS
VL: EIVMTQSPATLSVSPGERATLSCRASQSVRSNLAWYQQKPGQAPRLLIHDASPRTAGIPARFSGSGSGTEFTLTINSLQSEDFAVYYCQQYNYWTPITFGQGTRLEIK

binding [2]: binds
B6: 12E8 (antibody, human IgG2, kappa, V domains shown)
VH: B5 VH
VL: B5 VL with I3T, A5T, T14S, A33D, K35R, T36N, V63L

binding [1]: binds
binding [2]: binds
B8: 12G8 (antibody, human IgG2, lambda, V domains shown)
VH: B9 VH with M117L
VL: B9 VL with E12A
